Assay results: PMC8895442
These are yes or no findings as the source states them, for the method shown. Binding seen in cells or lysates may run through a third protein. A yes stands for co-enrichment or nearness to the bait. Other partners may have been found.

Target: Flag-PTEN (phosphatase and tensin homolog deleted on chromosome ten) (UniProt P60484)
Assay: affinity purification with mass spectrometry; 293T cells transfected with Flag-PTEN; PTEN immunoprecipitated with anti-PTEN antibody and protein A+G agarose at 4 °C; LC-MS/MS; IgG control; n = 1

- binding: binds
B1: ubiquitin-specific peptidase 22 (USP22) (enzyme, UniProt Q9UPT9 1-525)
chain: MVSRPEPEGEAMDAELAVAPPGCSHLGSFKVDNWKQNLRAIYQCFVWSGTAEARKRKAKSCICHVCGVHLNRLHSCLYCVFFGCFTKKHIHEHAKAKRHNLAIDLMYGGIYCFLCQDYIYDKDMEIIAKEEQRKAWKMQGVGEKFSTWEPTKRELELLKHNPKRRKITSNCTIGLRGLINLGNTCFMNCIVQALTHTPLLRDFFLSDRHRCEMQSPSSCLVCEMSSLFQEFYSGHRSPHIPYKLLHLVWTHARHLAGYEQQDAHEFLIAALDVLHRHCKGDDNGKKANNPNHCNCIIDQIFTGGLQSDVTCQVCHGVSTTIDPFWDISLDLPGSSTPFWPLSPGSEGNVVNGESHVSGTTTLTDCLRRFTRPEHLGSSAKIKCSGCHSYQESTKQLTMKKLPIVACFHLKRFEHSAKLRRKITTYVSFPLELDMTPFMASSKESRMNGQYQQPTDSLNNDNKYSLFAVVNHQGTLESGHYTSFIRQHKDQWFKCDDAIITKASIKDVLDSEGYLLFYHKQFLEYE
